The target in data set [1] is T1, NANOG homeodomain N51A N146A (UniProt Q80Z64).
T1 sequence (looked up, limits assumed): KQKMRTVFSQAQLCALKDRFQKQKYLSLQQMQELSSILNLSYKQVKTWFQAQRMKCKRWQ
The experiment in a line: EMSA. Particulars: EMSA: 10 mM Hepes pH 7.9, 10% glycerol, 50 mM KCl, 10 mM NaCl, 0.4 mM EDTA, 2.5 mM DTT, 0.25% Tween 20, 100 ug/ml dI:dC, 1 mg/ml BSA, 10 nM oligonucleotide; recombinant protein; protein details: His; label: 5' IR700 on upper strand.

Data set [2] concerns the target T2, NANOG homeodomain wild-type (UniProt Q80Z64).
T2 sequence (looked up, limits assumed): T1 sequence (looked up, limits assumed) with A51N
Nature of the data set: EMSA. Particulars: EMSA: 10 mM Hepes pH 7.9, 10% glycerol, 50 mM KCl, 10 mM NaCl, 0.4 mM EDTA, 2.5 mM DTT, 0.25% Tween 20, 100 ug/ml dI:dC, 1 mg/ml BSA, 10 nM oligonucleotide; recombinant protein; protein details: His; label: 5' IR700 on upper strand.

Numbering of substitutions follows the chain as printed. The exact form of at least one protein or probe is not confirmed. For some assays here: A negative result means that nothing was seen under these conditions. Where a protein sequence is shown, tags need not be part of it.

For “CTGTTAATGGGAGC (double strand) [Tcf3 promoter NANOG-binding site probe (14 bp)]”, the binding result in data set [1] is listed as “no binding”; in data set [2], “binds”.
